Experimental data from article PMC8523518.
No constants are given. Whether binding was seen depends on the method and setting. Binding seen in cells or lysates may run through a third protein. Some results given as binding are weak or reduced against the parent protein; the word gives no strength. For some of these results: Where a sequence is shown, tags or fusion partners need not be part of it.

The chains behind the UniProt entries cited, without tags or fusion partners.
UniProt P05198: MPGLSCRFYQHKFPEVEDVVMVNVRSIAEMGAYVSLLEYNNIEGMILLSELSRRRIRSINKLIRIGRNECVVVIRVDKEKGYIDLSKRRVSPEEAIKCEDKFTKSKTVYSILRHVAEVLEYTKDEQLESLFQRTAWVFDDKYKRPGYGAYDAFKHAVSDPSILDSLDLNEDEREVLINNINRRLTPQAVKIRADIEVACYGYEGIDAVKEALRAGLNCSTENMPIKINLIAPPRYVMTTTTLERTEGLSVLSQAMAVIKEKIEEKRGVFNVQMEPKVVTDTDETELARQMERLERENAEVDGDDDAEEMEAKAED

What was measured:
[1] = molecular target: T1, endogenous PHLPP2 (human (endogenous in SW480)) (UniProt Q6ZVD8); experiment: co-IP; endogenous proteins; lysates of SW480 cells treated with DMSO or tunicamycin for 3 h; immunoprecipitated with anti-PHLPP1 or anti-PHLPP2 antibodies and protein A/G agarose at 4 °C overnight; eIF2α detected by Western blot
T1 sequence: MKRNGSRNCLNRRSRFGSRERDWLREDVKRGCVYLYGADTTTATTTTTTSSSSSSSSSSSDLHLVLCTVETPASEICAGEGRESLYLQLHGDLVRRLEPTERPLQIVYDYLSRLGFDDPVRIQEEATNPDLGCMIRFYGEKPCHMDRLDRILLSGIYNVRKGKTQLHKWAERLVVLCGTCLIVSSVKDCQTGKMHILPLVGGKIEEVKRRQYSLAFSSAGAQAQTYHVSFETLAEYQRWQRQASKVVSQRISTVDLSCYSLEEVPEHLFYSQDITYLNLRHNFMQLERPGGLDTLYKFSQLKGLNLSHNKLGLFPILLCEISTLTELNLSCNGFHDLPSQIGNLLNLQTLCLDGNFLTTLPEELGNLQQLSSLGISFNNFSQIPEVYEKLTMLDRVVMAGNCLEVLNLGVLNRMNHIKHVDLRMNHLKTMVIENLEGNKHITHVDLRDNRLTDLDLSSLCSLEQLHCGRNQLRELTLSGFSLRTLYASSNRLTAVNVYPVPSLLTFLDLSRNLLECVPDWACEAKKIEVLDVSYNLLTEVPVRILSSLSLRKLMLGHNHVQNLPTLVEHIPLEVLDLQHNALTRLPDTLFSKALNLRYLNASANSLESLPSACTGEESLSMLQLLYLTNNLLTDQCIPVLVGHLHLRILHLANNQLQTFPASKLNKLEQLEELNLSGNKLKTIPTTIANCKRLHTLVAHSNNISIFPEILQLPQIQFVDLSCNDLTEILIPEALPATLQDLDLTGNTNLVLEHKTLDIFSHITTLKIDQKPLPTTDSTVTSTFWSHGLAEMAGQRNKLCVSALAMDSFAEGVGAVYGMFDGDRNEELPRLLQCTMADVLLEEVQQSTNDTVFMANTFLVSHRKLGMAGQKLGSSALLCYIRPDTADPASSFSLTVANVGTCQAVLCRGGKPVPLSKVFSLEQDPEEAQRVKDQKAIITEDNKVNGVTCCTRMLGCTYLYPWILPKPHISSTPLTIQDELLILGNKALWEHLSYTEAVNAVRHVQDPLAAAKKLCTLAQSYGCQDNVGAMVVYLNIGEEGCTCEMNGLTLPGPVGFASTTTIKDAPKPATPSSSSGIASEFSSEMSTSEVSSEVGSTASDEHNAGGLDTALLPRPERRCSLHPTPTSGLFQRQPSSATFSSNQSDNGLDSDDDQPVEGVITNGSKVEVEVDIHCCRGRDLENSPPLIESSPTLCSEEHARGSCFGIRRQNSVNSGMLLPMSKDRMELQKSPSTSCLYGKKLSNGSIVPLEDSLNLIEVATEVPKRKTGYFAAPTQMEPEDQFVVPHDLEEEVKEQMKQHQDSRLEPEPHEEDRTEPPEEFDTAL

[2] = molecular target: endogenous PHLPP1 (containing the N-terminal extension) (human (endogenous in SW480)) (UniProt O60346); experiment: as above
HA-PHLPP2 = molecular target: T2, HA-PHLPP2 (UniProt Q6ZVD8); experiment: co-IP; lysates of stable SW480 cells expressing HA-PHLPP1 or HA-PHLPP2, treated with DMSO or tunicamycin for 3 h; immunoprecipitated with anti-HA antibody and protein A/G agarose at 4 °C overnight; eIF2α detected by Western blot
T2 sequence: T1 sequence

[3] = molecular target: T3, HA-PHLPP1 (a N-terminal truncated form of PHLPP1 originally termed PHLPP1α) (UniProt O60346); experiment: as above
T3 sequence: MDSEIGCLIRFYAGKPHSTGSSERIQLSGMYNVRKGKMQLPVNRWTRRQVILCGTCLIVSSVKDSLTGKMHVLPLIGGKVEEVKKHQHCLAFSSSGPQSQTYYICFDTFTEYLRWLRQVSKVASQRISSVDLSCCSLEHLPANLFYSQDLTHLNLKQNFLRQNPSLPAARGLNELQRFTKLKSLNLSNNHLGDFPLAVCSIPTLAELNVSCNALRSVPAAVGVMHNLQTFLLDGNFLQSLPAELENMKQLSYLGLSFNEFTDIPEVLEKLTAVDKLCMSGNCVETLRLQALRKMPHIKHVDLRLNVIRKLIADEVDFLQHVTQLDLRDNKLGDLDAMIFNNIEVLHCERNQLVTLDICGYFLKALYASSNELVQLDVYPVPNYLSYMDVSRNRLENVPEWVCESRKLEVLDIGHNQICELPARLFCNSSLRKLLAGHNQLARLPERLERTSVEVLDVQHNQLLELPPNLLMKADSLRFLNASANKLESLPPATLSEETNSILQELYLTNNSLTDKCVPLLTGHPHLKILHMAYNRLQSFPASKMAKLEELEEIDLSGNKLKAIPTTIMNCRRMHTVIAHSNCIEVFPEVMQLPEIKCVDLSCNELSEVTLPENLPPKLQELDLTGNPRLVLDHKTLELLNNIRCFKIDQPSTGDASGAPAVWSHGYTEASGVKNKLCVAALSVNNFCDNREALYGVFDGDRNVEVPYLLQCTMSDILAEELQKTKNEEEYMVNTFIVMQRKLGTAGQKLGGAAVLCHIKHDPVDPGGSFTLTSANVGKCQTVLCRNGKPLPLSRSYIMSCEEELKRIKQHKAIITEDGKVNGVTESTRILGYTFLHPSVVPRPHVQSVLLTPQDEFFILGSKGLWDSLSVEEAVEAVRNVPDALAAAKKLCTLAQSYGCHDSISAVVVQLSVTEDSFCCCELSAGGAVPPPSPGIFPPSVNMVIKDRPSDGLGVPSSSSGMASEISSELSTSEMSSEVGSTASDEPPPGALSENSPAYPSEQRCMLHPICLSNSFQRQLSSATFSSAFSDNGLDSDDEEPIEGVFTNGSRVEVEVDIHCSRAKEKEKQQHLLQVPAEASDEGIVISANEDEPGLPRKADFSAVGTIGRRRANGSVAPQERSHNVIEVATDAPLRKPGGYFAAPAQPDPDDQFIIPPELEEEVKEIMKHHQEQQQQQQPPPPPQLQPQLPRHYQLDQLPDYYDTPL

binding [1]: binds | binding [2]: binds | binding (HA-PHLPP2): binds | binding [3]: binds
Substance: eIF2α (from UniProt P05198 1-315)
